# Results as given in PubChem BioAssay AID588590 (National Center for Advancing Translational Sciences (NCATS), 2011).
# Protein sequences, listed by entry. Tags and fused reporters are not part of them. Lines headed by an entry give the natural chain unless they say otherwise; changes in a name come on top.
# UniProt Q9UNA4: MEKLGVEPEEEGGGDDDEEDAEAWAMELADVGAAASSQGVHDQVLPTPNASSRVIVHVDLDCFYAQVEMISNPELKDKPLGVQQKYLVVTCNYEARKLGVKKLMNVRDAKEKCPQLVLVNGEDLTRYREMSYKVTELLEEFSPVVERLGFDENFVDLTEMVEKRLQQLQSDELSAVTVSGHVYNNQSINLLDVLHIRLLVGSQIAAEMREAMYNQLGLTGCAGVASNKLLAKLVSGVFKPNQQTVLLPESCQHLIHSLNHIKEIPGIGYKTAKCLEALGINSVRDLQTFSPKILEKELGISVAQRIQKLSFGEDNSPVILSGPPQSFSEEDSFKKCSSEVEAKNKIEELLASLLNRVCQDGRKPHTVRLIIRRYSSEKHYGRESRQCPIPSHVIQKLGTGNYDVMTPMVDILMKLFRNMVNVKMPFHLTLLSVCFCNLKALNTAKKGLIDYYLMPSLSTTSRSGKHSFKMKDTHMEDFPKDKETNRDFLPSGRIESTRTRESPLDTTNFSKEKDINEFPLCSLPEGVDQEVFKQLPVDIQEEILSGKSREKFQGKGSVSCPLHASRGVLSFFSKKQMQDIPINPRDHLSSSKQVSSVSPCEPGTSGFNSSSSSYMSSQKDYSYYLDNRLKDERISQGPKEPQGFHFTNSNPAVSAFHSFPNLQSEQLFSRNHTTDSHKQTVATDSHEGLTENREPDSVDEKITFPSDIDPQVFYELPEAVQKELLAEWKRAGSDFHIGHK
# “And” between values parts separate entries of the source, which are not always exact repeats. Equal entries are not always repeated. The whole screen tested about 390,000 compounds, of which about 4,000 (1%) were called active. This list was built around the results that the source calls inconclusive (neither active nor inactive); the mix of calls is not that of the screen. Calls come from the whole dose curve; as a rule, active = well fitted inhibition curve with a large enough effect; inconclusive = small, poorly fitted or top-dose-only effect, or another doubt; inactive = no such curve, though single readings can be large or run the other way. Where the call is inconclusive, the potency comes from a doubtful curve fit. Residues, ends and D or L forms follow the SMILES beside them.
# Biological target: DNA polymerase iota (Homo sapiens) (UniProt Q9UNA4)
# Assay: qHTS for Inhibitors of Polymerase Iota
# Conditions: Pol iota fluorescent replication assay, 10 min; series mostly up to 115 µM
# How it was run: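 Pol iota at 10 nM preincubated 15 min with compounds at room temperature; reaction started with fluorescent substrate, 50 nM final. Fluorescence read kinetically at 0 and 10 min; buffer-only wells as negative control.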
# Potency is the fitted concentration of half-maximal effect.
row,SMILES,Potency
1,CCS(=O)(=O)N1Cc2ccccc2CC1C(=O)NCCc1ccccc1 (stereo not drawn),"inconclusive: 25.1 µM [inhibitor, full curve, poor fit]"
2,CCS(=O)(=O)c1ccc(O)c(NC(=O)c2cc(-c3ccccn3)nc3ccccc23)c1,"inconclusive: 0.631 µM [inhibitor, full curve, poor fit]"
3,CC(=O)c1ccc(C#CC(C)(C)O)s1,"inconclusive: 70.8 µM [inhibitor, full curve]"
4,O=C(CN1CCN(c2ccc(O)cc2)CC1)Nc1cc(S(=O)(=O)N2CCOCC2)ccc1Cl,"inconclusive: 89.1 µM [inhibitor, partial curve, poor fit]"
5,CC(C)c1nnc(SCC(=O)NCCC2=CCCCC2)n1N,"inconclusive: 79.4 µM [inhibitor, partial curve]"
6,Cc1cc(Nc2ccc(Br)cc2)nc(C)n1,inactive
7,COc1cc2[nH]c(C)c(CCN3CCN(c4ccccc4)CC3)c2cc1OC,inactive
8,Nc1[nH]c(N=NC(=O)c2ccccc2)c2ccccc12,"inconclusive: 79.4 µM [inhibitor, partial curve]"
9,O=C(O)C1Cc2ccccc2CN1S(=O)(=O)c1ccc2ccccc2c1 (stereo not drawn),"inconclusive: 25.1 µM [inhibitor, single point]"
10,O=C(CCc1nc(-c2ccccc2)no1)NC1CCCCCC1,inactive
11,C/C(=N\NC(=S)NCCc1ccccc1)c1ccc(O)cc1O,"inconclusive: 56.2 µM [inhibitor, partial curve, poor fit]"
12,O=C(Nc1cc(Br)c(O)c(Br)c1)c1cccc(NC(=O)c2ccco2)c1,inactive
13,COc1cc(-c2nc3sccn3c2Nc2c(C)cccc2C)ccc1O,"inconclusive: 31.6 µM [inhibitor, partial curve, poor fit]"
14,CC1(c2ccc(NC(=O)c3ccccc3F)cc2)CC1(Cl)Cl (stereo not drawn),"inconclusive: 89.1 µM [inhibitor, partial curve, poor fit]"
15,Cc1cc(O)cc(C)c1Cl,"inconclusive: 89.1 µM [inhibitor, single point]"
16,CCc1nc(SCC(=O)c2cc(C)ccc2C)n[nH]1,"inconclusive: 25.1 µM [inhibitor, single point]"
17,Cc1ccc(-c2nc(CS(=O)CC(=O)NC3CCC(C)CC3)c(C)o2)cc1 (stereo not drawn),"inconclusive: 56.2 µM [inhibitor, partial curve, poor fit]"
18,O=c1[nH]c(=S)[nH]c2nc[nH]c12,inactive
19,O=C(N/N=C/c1ccc([N+](=O)[O-])o1)C(=O)Nc1ccc(C(=O)O)cc1,"inconclusive: 15.8 µM [inhibitor, full curve, poor fit]"
20,CC(NS(=O)(=O)c1ccc(Cl)cc1)C(=O)NCc1ccco1 (stereo not drawn),active: 70.8 µM
21,CC(=O)N1CCCC1c1nc2ccccc2n1Cc1ccccc1Cl (stereo not drawn),"inconclusive: 89.1 µM [inhibitor, single point]"
22,CC(C)(C)c1ccc(C(=O)CSc2ncn[nH]2)cc1,"inconclusive: 15.8 µM [inhibitor, full curve, poor fit]"

row,SMILES,Potency
1,CCc1cc(C(=O)Nc2cc(S(=O)(=O)N(CC)CC)ccc2N2CCN(C)CC2)sc1C,"inconclusive: 35.5 µM [inhibitor, single point]"
2,COc1ccccc1/C=C1\S/C(=N/NC(=O)c2cccc(Br)c2)NC1=O,inactive
3,Cc1ccc(-n2c(Cc3cccc4ccccc34)n[nH]c2=S)c(C)c1,inactive
4,O=C1Cc2cc(S(=O)(=O)N3CCN(c4cccc(Cl)c4)CC3)ccc2N1,"inconclusive: 79.4 µM [inhibitor, partial curve, poor fit] and inconclusive: 56.2 µM [inhibitor, single point]"
5,O=C(Nc1nc2c(F)cc(F)cc2s1)c1ccc(S(=O)(=O)N2CCc3ccccc32)cc1,"inconclusive: 12.6 µM [inhibitor, partial curve, poor fit]"
6,O=C(NC1=C(NC2CCS(=O)(=O)C2)C(=O)c2ccccc2C1=O)c1ccccc1 (stereo not drawn),active: 35.5 µM
7,Fc1nc(F)c(F)c(NCCCNc2c(F)c(F)nc(F)c2F)c1F,"inconclusive: 89.1 µM [inhibitor, single point]"
8,N=C1/C(=C\c2ccc(-c3ccc(C(=O)O)cc3)o2)C(=O)N=C2SC=C(c3ccccc3)N12,"inconclusive: 39.8 µM [inhibitor, partial curve, poor fit]"
9,COc1ccc(N2C(=O)c3ccccc3C2O)cc1 (stereo not drawn),inactive
10,Cc1cc(NC(=O)CN2CCc3ccccc3C2)nc2c1c(=O)oc1ccccc12,inactive
11,O=c1cc(-c2cc3ccccc3o2)c2cc(O)ccc2o1,inactive
12,Cc1ccc(CNC(=O)CSc2nc3c(sc4ccccc43)c(=O)n2CCCC(=O)NCCO)cc1,"inconclusive: 89.1 µM [inhibitor, single point]"
13,COc1cc(/C=C2\C(C)=C(C#N)c3nc(N)c(C#N)c(C)c32)ccc1OCC(=O)O,inactive
14,O=C(O)Cn1cc(/C=N/NC(=O)c2cc3cc(Br)ccc3o2)c2ccccc21,active: 70.8 µM
15,CC(=O)Nc1cccc(Cl)c1C(=O)O,inactive
16,Fc1ccc(CSc2nnc(CN3CCOCC3)n2-c2ccccc2)c(Cl)c1,"inconclusive: 35.5 µM [inhibitor, partial curve, poor fit]"
17,CCOC(=O)c1ccc(S(=O)(=O)NNS(=O)(=O)c2ccc(C)cc2)cc1,inactive
18,COc1cc(/C=C2/SC(=NCc3ccccc3)N(Cc3ccccc3)C2=O)ccc1O,"inconclusive: 28.2 µM [inhibitor, partial curve, poor fit]"
19,O=C(CCNC(=O)c1ccccc1Cl)NN=Cc1ccco1,inactive
20,CCn1c(C)c(C)c2cc(C(=O)NCC(C)c3ccccc3)ccc21 (stereo not drawn),"inconclusive: 89.1 µM [inhibitor, partial curve, poor fit]"
21,"C[C@@H]1NC(=O)[C@H](CC(N)=O)NC(=O)c2cc([N+](=O)[O-])cc(I)c2OCC[C@@H](C(=O)NC(CC(=O)O)C(N)=O)NC1=O (stereo partly drawn) (HELM PEPTIDE1{N.A.[O=C([C@H](CCOc1c(I)cc([N+](=O)[O-])cc1C(=O)[*:3])N[*:1])[*:2]].[O=C(O)CC(N[*:1])C(=O)[*:2]].[am]}$PEPTIDE1,PEPTIDE1,1:R1-3:R3$$$V2.0)","inconclusive: 31.6 µM [inhibitor, partial curve]"

# As a working copy, 2 of the compounds above.
row,SMILES,Potency
10,Cc1cc(NC(=O)CN2CCc3ccccc3C2)nc2c1c(=O)oc1ccccc12,inactive
11,O=c1cc(-c2cc3ccccc3o2)c2cc(O)ccc2o1,inactive
